{"source": "PubChem BioAssay AID1259259 (Sanger Institute, 2017)", "test": "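Kinome siRNA search for kinases essential alone or combined with trametinib, cetuximab or BYL719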 (primary screen)", "cell system": "SW1463 human colorectal cancer cells", "reagent": "siRNA pool against human genes", "challenge": "DMSO vehicle, or one anchor drug: BYL719 at 1 µM, cetuximab at 5 µg/ml, or trametinib at 10 nM", "read-out": "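Viability relative to control pool 2 (non-targeting) averaged over replicates, robust z-score for knock-down with no drug, and for each anchor drug the mean synergy score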", "scale": "robust z-score, knock-down alone: higher = more viable cells after knock-down; viability, knock-down alone: higher = more viable cells", "hit rule": "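Knock-down called essential when its robust z-score without drug falls below -3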", "meaning of the calls": "active = essential: viability loss from knock-down alone; inactive = no change from knock-down alone", "note": "In all, the deposit lists 794 reagents; shown is a random part of them. Of all reagents, 9 (1.1%) were called active. 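Calls rest on knock-down alone, not drug synergy; viability values seem capped at 1.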 A number with no mark means an inactive call. Further read-outs or replicates are left out here. Reagent sequences are not shown. The record does not give: the amount of reagent, the time to read-out."}
{"Target gene": "MARK1 (GeneID 4139)", "robust z-score, knock-down alone": 1.13, "viability, knock-down alone (fraction of control)": 1}
{"Target gene": "NEK6 (GeneID 10783)", "robust z-score, knock-down alone": 1.13, "viability, knock-down alone (fraction of control)": 1}
{"Target gene": "DGKA (GeneID 1606)", "robust z-score, knock-down alone": 0.0278, "viability, knock-down alone (fraction of control)": 0.929}
{"Target gene": "FXR1 (GeneID 8087)", "robust z-score, knock-down alone": 1.13, "viability, knock-down alone (fraction of control)": 1}
{"Target gene": "MAPK3 (GeneID 5595)", "robust z-score, knock-down alone": -1.14, "viability, knock-down alone (fraction of control)": 0.854}
{"Target gene": "STK31 (GeneID 56164)", "robust z-score, knock-down alone": 0.268, "viability, knock-down alone (fraction of control)": 0.945}
{"Target gene": "PFKM (GeneID 5213)", "robust z-score, knock-down alone": -0.318, "viability, knock-down alone (fraction of control)": 0.907}
{"Target gene": "GK2 (GeneID 2712)", "robust z-score, knock-down alone": 0.263, "viability, knock-down alone (fraction of control)": 0.945}
{"Target gene": "MAK (GeneID 4117)", "robust z-score, knock-down alone": 0.249, "viability, knock-down alone (fraction of control)": 0.944}
{"Target gene": "CMPK1 (GeneID 51727)", "robust z-score, knock-down alone": 1.13, "viability, knock-down alone (fraction of control)": 1}
{"Target gene": "PIP4K2A (GeneID 5305)", "robust z-score, knock-down alone": -1.06, "viability, knock-down alone (fraction of control)": 0.86}
{"Target gene": "MAPK14 (GeneID 1432)", "robust z-score, knock-down alone": 0.396, "viability, knock-down alone (fraction of control)": 0.953}

Copied from the entries so far for reference:
{"Target gene": "STK31 (GeneID 56164)", "robust z-score, knock-down alone": 0.268, "viability, knock-down alone (fraction of control)": 0.945}
{"Target gene": "PFKM (GeneID 5213)", "robust z-score, knock-down alone": -0.318, "viability, knock-down alone (fraction of control)": 0.907}
